Results reported in publication PMC12040169 (PLOS Biology, 2025).
Some of the results follow.

Each molecule was assayed on T1, CTL2-GFP (C. trachomatis L2/434/Bu, GFP-expressing). Settings: bulk GFP, single well; 28.5 h, 10 µM; inhibitor.
T1 construct: L2/434/Bu, GFP-expressing
Set-up: species or system HeLa; Intracellular C. trachomatis growth in HeLa cells, bulk GFP fluorescence relative to DMSO

SMILES	% of control remaining
O=C1N=C(NC2CC3CCC2C3)SC12CCCO2 (stereo not drawn) [CBK116312]	100.432%
CCOc1ccc(Cl)cc1CN(C)C(=O)NC(C)CN1CCOCC1 (stereo not drawn) [CBK307170]	59.7389%
CCCSc1scc2c1-c1n[nH]cc1CC2 [CBK017006]	109.394%
CC(=O)NCCSc1nccc(C(F)(F)F)n1 [CBK105301]	120.936%
O=C(CSc1nnc(-c2cccnc2)n1-c1ccc(Br)cc1)Nc1ccc2c(c1)OCO2 [CBK266153]	161.768%
CCOC(=O)NC(=O)c1ccccc1 [CBK012359]	115.53%
Cc1sc(NC(=O)COc2ccccc2)c(C(N)=O)c1-c1ccccc1 [CBK268164]	112.801%
Cc1csc2ncc(C(=O)Nc3ccccc3C#N)c(=O)n12 [CBK287458]	139.361%
CN(C)[C@H]1CCCC[C@@H]1OC(=O)c1ccc(C(F)(F)F)cc1 [CBK010550F]	125.272%
Clc1ccc(Nc2cncc(-c3cccnc3)n2)cc1 [CBK065234]	151.563%
c1ccc2c(-c3cn4ccnc4c(N4CCOCC4)n3)cccc2c1 [CBK037387]	101.341%
O=C(CSc1nc2ccccc2[nH]1)Nc1ccc(OC(F)(F)F)cc1 [CBK269711]	153.638%
O=C(O)c1ccc(CNCC(O)c2ccccc2)cc1 (stereo not drawn) [CBK287243]	112.321%
O=C(c1ccc2c(c1)OCCO2)N1CCN(c2ncccn2)CC1 [CBK144519]	101.318%
FC(F)(F)c1ccnc(OCCNc2ccccc2)n1 [CBK115839]	101.751%
CC(C)C[C@@H]1N[C@H](C(=O)N2CCN(c3ncccn3)CC2)Cc2cn(C)c3cccc1c23 [CBK289421]	106.033%
CC(C)(N)C(=O)N1CC(C(=O)N2CC3(CCN(S(C)(=O)=O)CC3)c3ccccc32)C(c2cc3ccccc3o2)C1 (stereo not drawn) [CBK136734T]	111.187%
CCC1c2ccc(C)n2CCN1Cc1cnc(C)n1C (stereo not drawn) [CBK283038]	123.301%
CC(=O)c1nnn(-c2ccc(Cl)cc2Cl)c1C [CBK085972]	176.996%
CCOC(=O)c1ccc(NC(=O)C2CC(=O)NC(Nc3nc4ccccc4s3)=N2)cc1 (stereo not drawn) [CBK264396]	132.514%
COC1C(O)C(CO)OC1n1cc(F)c(Oc2c(C)cc(C)cc2C)nc1=O (stereo not drawn) [CBK201279]	123.17%
COc1ccc(C)cc1S(=O)(=O)N(CC(=O)O)Cc1ccccc1 [CBK267847]	74.9469%
COc1cccc(CC(=O)N2CCCC2c2cc(Nc3nc(C)cc(C)n3)cc(C)n2)c1 (stereo not drawn) [CBK285999]	130.051%
CCC(CC)C(=O)N(C)c1c(C)nc2ccc(C(=O)Nc3cccc(NS(C)(=O)=O)c3)cn12 [CBK146526]	110.811%
CC(C)c1nsc(NCCc2nnc3n2CCCC3)n1 [CBK306425]	137.269%
Clc1ccc(OCc2ccccc2)c(CNCCN2CCOCC2)c1 [CBK278162C]	157.598%

Part of the list above, reformatted.
SMILES | % of control remaining
CN(C)[C@H]1CCCC[C@@H]1OC(=O)c1ccc(C(F)(F)F)cc1 [CBK010550F] | 125.272%
Clc1ccc(Nc2cncc(-c3cccnc3)n2)cc1 [CBK065234] | 151.563%
c1ccc2c(-c3cn4ccnc4c(N4CCOCC4)n3)cccc2c1 [CBK037387] | 101.341%

Later entries

SMILES	% of control remaining
O=C(NCCN1CCOCC1)C1(c2ccccc2)CCCC1 [CBK149538]	122.986%
C[C@H]1[C@@H]2[C@@H](O)C([C@H](C)C(=O)NCc3ccccn3)CC[C@@]2(C)CC[C@@H]1NC(=O)C1CC1 (stereo partly drawn) [CBK289445]	156.796%
COCCNc1nc(-c2cccc(-c3ccccc3)c2)cnc1N [CBK063474]	146.333%
CN(C)CCCOC(=O)C(C)(c1ccccc1)c1ccccc1 [CBK265325C]	95.3032%
Oc1nnc(-c2ccc(Cl)c(Cl)c2)n1C1CCCCC1 [CBK074888]	90.9401%
Cc1c(C)n2c(SCC(=O)N3CCCC3)nnc2[nH]c1=O [CBK287686]	145.532%
CC1CCN(CN2C(=O)C(=O)c3ccccc32)CC1 [CBK261304]	100.666%
Cc1ccc(-n2c3nc(=O)n(C)c(=O)c-3cc3ccccc32)cc1 [CBK288007]	124.799%
CCN1CC(C(=O)N2CCCCC2CN(C)C)CC1=O (stereo not drawn) [CBK282056]	109.834%
CCOc1ccsc1C(=O)Nc1cc(C)ccn1 [CBK004029]	27.0139%
Cc1cc(NS(=O)(=O)c2ccc(Oc3ccccc3)cc2)n(C)n1 [CBK067249]	116.922%
Cc1nn(CC(=O)N(C(C)C)C(C)C)c(=O)c2cc3occc3n12 [CBK283655]	96.3909%
O=C(NCCC1=CCCCC1)Nc1ccc2ccccc2c1 [CBK044195]	109.471%
O=C(c1ccccc1)c1ccc(S(=O)(=O)N2CCCN(Cc3c[nH]nc3-c3ccccc3)CC2)cc1 [CBK062773]	130.343%
O=C1CC[C@@H](NCc2ccco2)[C@H](c2cc(F)cc(F)c2)N1 [CBK283127]	113.734%
O=c1[nH]c(CSc2nnc(COc3ccccc3)o2)nc2ccccc12 [CBK269869]	127.812%
C/C(=N/NC(=O)C(C)CN1CCOCC1)c1ccc(Cl)cc1 (stereo not drawn) [CBK016045]	120.475%
CCOc1cccc(N2C(=O)CC(N3CCN(c4ccccn4)CC3)C2=O)c1 (stereo not drawn) [CBK262829]	111.658%
O=C(CSc1ccc(Cl)cc1)NCCCN1CCOCC1 [CBK009390]	89.0887%
CCNC(=O)CN1CCN(c2nc(C(F)(F)F)ccc2C#N)CC1 [CBK305515]	122.201%
CNC(=O)c1ccc(-c2ccc(C)c(C)c2)nc1NCCOC [CBK105999]	136.475%
COc1ccc(NC(=O)CCCSc2nc(N)c3c(C)c(C)sc3n2)cc1 [CBK266547]	142.95%
CCNc1nc(C#N)nc(Nc2ccccc2)n1 [CBK027733]	150.518%
O=C(Nc1ccc2oc(-c3cccnc3)nc2c1)c1ccc(-c2ccc(OC(F)(F)F)cc2)o1 [CBK107713]	105.819%
CC(C)(C#N)c1ccccc1CN1CCCCC1c1[nH]ncc1C(N)=O (stereo not drawn) [CBK304740]	103.454%
